# The full ranking holds about 33,000 sequences; the median of “E-score (-0.5 to 0.5)” is about -0.0059, and the highest 2% start at about 0.26. This is one part of the list.
# Biological target: T1, Cin5 (UniProt P40917)
# T1 sequence: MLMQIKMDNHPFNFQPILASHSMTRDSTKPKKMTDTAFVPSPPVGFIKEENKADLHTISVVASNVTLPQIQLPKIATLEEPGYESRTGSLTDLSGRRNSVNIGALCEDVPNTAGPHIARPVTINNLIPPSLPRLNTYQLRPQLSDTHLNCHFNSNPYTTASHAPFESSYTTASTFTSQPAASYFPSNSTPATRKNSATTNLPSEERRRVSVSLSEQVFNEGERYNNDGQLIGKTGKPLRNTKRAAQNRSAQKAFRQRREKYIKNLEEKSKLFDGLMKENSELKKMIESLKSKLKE
# Experiment: PBM E-score (8-mer binding enrichment) (E-score (-0.5 to 0.5)); higher = stronger / more preferred TF binding
# Conditions: protein concentration: 100 nM; construct: GST-full length
# In short: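 Yeast transcription factors, full-length or as DNA-binding domains, were expressed with a GST tag using PURExpress in vitro transcription/translation. At about 100-200 nM they were applied to universal all-10-mer Agilent arrays, double-stranded by primer extension on fresh or once-stripped slides. Fluorescent anti-GST detected bound protein, and masliner normalised the scans. E-scores for ungapped eight-base words, pooled with reverse complements, came from the Universal PBM Analysis Suite.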
row,Sequence,PBM E-score
1,CCACAACA,-0.0453
2,ACATGGAA,0.0579
3,ACACCGGT,-0.113
4,GAGTCACA,-0.067
5,CGACCAGC,-0.127
6,ACATTATC,0.289
7,AATTCCTA,0.15
8,CTAGGCAG,-0.112
9,GTCGCAAA,0.052
10,GGGAGGCA,-0.185
11,ATCCTCTC,0.0131
12,AGGCTGTA,-0.0114
13,ACAAAGAT,0.165
14,CGTACCCC,0.0116
15,CGTTCCGA,0.111
16,ACCGGGAT,-0.0607
17,ACCCTACG,-0.0466
18,AGTCATAC,0.0498
19,GCACATCC,-0.0517
20,CGCTCCTC,-0.373
21,ACTGCCAT,0.082
22,TAACCAGA,-0.082
23,ACAATATA,0.269
24,CTCCAGTA,0.144
25,CTATGCAA,0.0805

# A different layout for part of the listing above.
row | Sequence | PBM E-score
8 | CTAGGCAG | -0.112
9 | GTCGCAAA | 0.052
10 | GGGAGGCA | -0.185

# An excerpt of these results, tab-delimited.
row	Sequence	PBM E-score
1	CCACAACA	-0.0453
5	CGACCAGC	-0.127
14	CGTACCCC	0.0116
20	CGCTCCTC	-0.373

# Carrying on.

row,Sequence,PBM E-score
1,ACGGTACC,-0.125
2,ATGTACAA,0.0216
3,AAACAATA,0.287
4,GTCTCGAA,-0.105
5,AGTCTCTC,-0.149
6,CAGCAAAG,-0.0276
7,TATCTTGA,0.104
8,ATTGGCAG,-0.074
9,ACGCTGCC,-0.139
10,GACTAGAC,-0.179
11,CAAACACG,0.0926
12,TGCGCTAA,0.17
13,GCCGTTCC,-0.054
14,GAAACCAC,0.121
15,GTTACGAA,0.16
16,ACGTGCAA,0.135
17,CAGCCCGC,-0.197
18,GGCTCCTA,-0.233
19,TACAAGGA,0.0158
20,AAATTCTT,-0.0979
21,CTTCACCC,0.0607
22,TATCTGCA,-0.00198
23,ACCTCCCG,-0.195
24,CAGGGGAC,-0.375
25,CGATGGCG,-0.00568

row,Sequence,PBM E-score
1,AATCCGGT,0.168
2,CAAGAGCC,-0.0752
3,CTTGAACA,-0.039
4,AAGCCGGA,0.162
5,AACGTCGC,-0.0557
6,CACTGGGC,-0.14
7,GCTAATCC,0.114
8,GGTGCATA,-0.0385
9,CAAGATCG,0.00613
10,CTGTGGAA,-0.059
11,CTGTAAGC,0.0794
12,TTGAGAAA,0.159
13,GCGGACCA,0.0568
14,ATGTAATA,0.361
15,TAATGCGA,0.131
16,CTTTCACC,0.0758
17,AGTACACC,0.0554
18,ATATACCG,0.142
19,CGCAGCTA,-0.0588
20,CTGCCAGA,-0.253
21,ACTCCACT,-0.17
22,ACAGCTTG,0.11
23,ACCGTCCG,-0.195
24,AATTTTCA,0.137
25,GACACTCA,-0.0435

# 3 successive records out of the list so far:
row,Sequence,PBM E-score
20,CTGCCAGA,-0.253
21,ACTCCACT,-0.17
22,ACAGCTTG,0.11

# Continuation.

row,Sequence,PBM E-score
1,CCACTCTA,0.0982
2,AAATATTT,0.141
3,CTGCTGGC,-0.376
4,CACACGCA,-0.0982
5,CACACCGG,-0.0678
6,GGTCCTGA,-0.0423
7,CCGGTGCG,-0.12
8,CAGTGGTC,-0.132
9,GGTAACAC,0.124
10,CCTGGTAG,-0.156
11,CCTTATAC,0.0498
12,CAGTCACG,-0.161
13,CCCGAACC,-0.12
14,CAAACCAG,-0.0671
15,CCTAAGCC,-0.18
16,GCGCTGAA,-0.2
17,AAGAAAAA,0.0155
18,ATGACCTG,-0.0382
19,CGTTGCGA,-0.0384
20,ACGCACCG,-0.0586
21,ATTACTGA,0.108
22,CTACTGAG,-0.0292
23,TCCAAAGA,-0.0912
24,CCTCAATA,-0.0429
25,AAGATGTG,0.0887

row,Sequence,PBM E-score
1,ACGCCCAC,0.0509
2,GGACTACC,-0.244
3,GGTTGTGA,0.144
4,TTAGACAA,0.108
5,GGCGTCTA,-0.208
6,AAACACCT,-0.0455
7,TATCGTGA,-0.0431
8,AGTTCCAT,0.159
9,AGGTGTAC,-0.0656
10,GAGTACCA,0.125
11,AAGGATGC,-0.00955
12,CCTGCTAG,-0.254
13,ACATCTCG,0.068
14,AGGCATTC,-0.0484
15,AATGAGTG,0.146
16,ATGCGGTC,-0.0372
17,CTGATCGC,0.0487
18,AAGAATCC,-0.0347
19,CCATGCGA,0.0615
20,CCCGCCCC,0.117
21,ATCACTAA,0.0259
22,TAGCTTAA,0.0898
23,ACTATGCA,0.0827
24,TAATATAA,0.355
25,GAAGCGCC,-0.0664

row,Sequence,PBM E-score
1,GCTGACTA,0.164
2,GACGCAAA,0.0322
3,ATGTCTCG,0.0364
4,AGAACCTA,0.00385
5,AAGTTGAA,0.0648
6,CATTTGCA,0.0979
7,CCATACTC,0.0191
8,AGTTCAAG,-0.0113
9,ACCATCTA,-0.106
10,GCCTATGA,-0.142
11,AATCCCTC,-0.113
12,AGCGCGCA,0.17
13,CGAGCTTC,0.107
14,AGCGGCAA,-0.0619
15,GAGCCCCA,-0.251
16,AATTGAAC,-0.0725
17,CCATACAG,-0.0464
18,ACCCCTGG,-0.189
19,ACTATAGA,0.156
20,GTCACGCA,0.0339
21,ACTCACTC,-0.0322
22,CAGCAAGC,-0.221
23,CACCACTC,-0.0334
24,ACCACCGG,-0.0652
25,GCCATAAA,-0.0591

row,Sequence,PBM E-score
1,AATCCAAT,0.195
2,GGTAAACC,-0.173
3,ATAACTCG,0.121
4,GTTATAAC,-0.103
5,CCCAAGAA,0.062
6,ACCTTACT,0.0647
7,TAAGGCGA,-0.0125
8,GATGGATA,0.16
9,AATGCGAA,-0.0575
10,GTACGTAA,0.397
11,AACAGAGT,0.0745
12,AACCTGTC,-0.0905
13,CTGATGAA,0.0259
14,TGTAATAA,0.194
15,ATTCGACC,-0.214
16,CGCGTTCC,-0.0726
17,GAGTGAGA,-0.0316
18,AGTTGGGA,-0.126
19,ATAGCCAT,0.137
20,ACGACACA,0.0457
21,CTACCAGA,0.00453
22,ATAGCTCG,-0.0782
